According to PMC6965176, “Targeting Forward and Reverse EphB4/EFNB2 Signaling by a Peptide with Dual Functions” (Scientific Reports, 2020):
Residue numbers refer to the chain shown, from its start. These are yes or no findings as the source states them, for the method shown. Some binding calls cover weakened binding; strength is not graded here. For some of these results: Where a sequence is shown, tags or fusion partners need not be part of it.

By UniProt entry, the sequences of proteins in these tests, tags left out. Residues count along the entry.
UniProt P52799, residues 28-229: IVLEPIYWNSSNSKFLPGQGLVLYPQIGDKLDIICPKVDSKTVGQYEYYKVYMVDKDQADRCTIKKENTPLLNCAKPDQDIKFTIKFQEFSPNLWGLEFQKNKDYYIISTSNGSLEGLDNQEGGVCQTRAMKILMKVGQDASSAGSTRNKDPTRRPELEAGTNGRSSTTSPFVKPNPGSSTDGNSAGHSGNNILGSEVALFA

T1: biotinylated BIDEN-AP
T1 sequence (peptide, D-Tyr at P3; biotin (position not stated)): TNYLFSPNGPIARAW

B1: EphB1 ectodomain fused with Fc (Fc fusion, UniProt Q8CBF3 18-540)
chain: MEETLMDTRTATAELGWTANPASGWEEVSGYDENLNTIRTYQVCNVFEPNQNNWLLTTFINRRGAHRIYTEMRFTVRDCSSLPNVPGSCKETFNLYYYETDSVIATKKSAFWSEAPYLKVDTIAADESFSQVDFGGRLMKVNTEVRSFGPLTRNGFYLAFQDYGACMSLLSVRVFFKKCPSIVQNFAVFPETMTGAESTSLVIARGTCIPNAEEVDVPIKLYCNGDGEWMVPIGRCTCKPGYEPENSVACKACPAGTFKASQEAEGCSHCPSNSRSPSEASPICTCRTGYYRADFDPPEVACTSVPSGPRNVISIVNETSIILEWHPPRETGGRDDVTYNIICKKCRADRRSCSRCDDNVEFVPRQLGLTECRVSISSLWAHTPYTFDIQAINGVSSKSPFPPQHVSVNITTNQAAPSTVPIMHQVSATMRSITLSWPQPEQPNGIILDYEIRYYEKEHNEFNSSMARSQTNTARIDGLRPGMVYVVQVRARTVAGYGKFSGKMCFQTLTDDDYKSELREQLP
B2: EphB6 ectodomain fused with Fc (Fc fusion, UniProt O08644 33-591)
chain: LEEVLLDTTGETSEIGWLTYPPGGWDEVSVLDDQRRLTRTFEACHVAGLPPGSGQDNWLQTHFVERRGAQRAHIRLHFSVRACSSLGVSGGTCRETFTLYYRQADEPDGPDSIAAWHLKRWTKVDTIAADESFPASSSSSSWAVGPHRTGQRVGLQLNVKERSFGPLTQRGFYVAFQDTGACLALVAVKLFSYTCPSVLRAFASFPETQASGAGGASLVAAVGTCVAHAEPEEDGVGGQAGGSPPRLHCNGEGRWMVAVGGCRCQPGHQPARGDKLCQACPEGSYKALAGNVPCSPCPARSHSPDPAAPVCPCLQGFYRASSDPPEAPCTGPPSAPRELWFEVQGSALMLHWRLPQELGGRGDLLFNVVCKECGGHGEPSSGGMCRRCRDEVHFDPRQRGLTESRVLVGGLRAHVPYILEVQAVNGVSELSPDPPQAAAINVSTSHEVPSAVPVMHQVSRAANSITVSWPQPEQTNGNILDYQLRYYDQAEDESHSFTMTSETNTATVTRLSPGHIYGFQVRARTAAGHGPYGGKVYFQTLPQGELSSQLPEKLSLVIG
B3: EphB2 ectodomain fused with Fc (Fc fusion, UniProt P54763 19-543)
chain: VEETLMDSTTATAELGWMVHPPSGWEEVSGYDENMNTIRTYQVCNVFESSQNNWLRTKFIRRRGAHRIHVEMKFSVRDCSSIPSVPGSCKETFNLYYYEADFDLATKTFPNWMENPWVKVDTIAADESFSQVDLGGRVMKINTEVRSFGPVSRNGFYLAFQDYGGCMSLIAVRVFYRKCPRIIQNGAIFQETLSGAESTSLVAARGSCIANAEEVDVPIKLYCNGDGEWLVPIGRCMCKAGFEAVENGTVCRGCPSGTFKANQGDEACTHCPINSRTTSEGATNCVCRNGYYRADLDPLDMPCTTIPSAPQAVISSVNETSLMLEWTPPRDSGGREDLVYNIICKSCGSGRGACTRCGDNVQYAPRQLGLTEPRIYISDLLAHTQYTFEIQAVNGVTDQSPFSPQFASVNITTNQAAPSAVSIMHQVSRTVDSITLSWSQPDQPNGVILDYELQYYEKELSEYNATAIKSPTNTVTVQGLKAGAIYVFQVRARTVAGYGRYSGKMYFQTMTEAEYQTSIKEKLPL
B4: EphB3 ectodomain fused with Fc (Fc fusion, UniProt P54754 30-554)
chain: LEETLMDTKWVTSELAWTSHPESGWEEVSGYDEAMNPIRTYQVCNVRESSQNNWLRTGFIWRREVQRVYVELKFTVRDCNSIPNIPGSCKETFNLFYYEADSDVASASSPFWMENPYVKVDTIAPDESFSRLDAGRVNTKVRSFGPLSKAGFYLAFQDQGACMSLISVRAFYKKCASTTAGFALFPETLTGAEPTSLVIAPGTCIANAVEVSVPLKLYCNGDGEWMVPVGACTCATGHEPAAKESQCRACPPGSYKAKQGEGPCLPCPPNSRTTSPAASICTCHNNFYRADSDSADSACTTVPSPPRGVISNVNETSLILEWSEPRDLGGRDDLLYNVICKKCRGSSGAGGPATCSRCDDNVEFVPRQLGLTERRVHISHLLAHTRYTFEVQAVNGVSGKSPLPPRYAAVNITTNQAAPSEVPTLHLHSSSGSSLTLSWAPPERPNGVILDYEMKYFEKSKGIASTVTSQKNSVQLDGLQPDARYVVQVRARTVAGYGQYSHPAEFETTSERGSGAQQLQEQLPL
B5: EphB1 ectodomain fused with Fc (Fc fusion, UniProt P54762 18-540)
chain: B1 chain with S278A
B6: EphB3 ectodomain fused with Fc (Fc fusion, UniProt P54753 34-559)
chain: GCRALEETLMDTKWVTSELAWTSHPESGWEEVSGYDEAMNPIRTYQVCNVRESSQNNWLRTGFIWRRDVQRVYVELKFTVRDCNSIPNIPGSCKETFNLFYYEADSDVASASSPFWMENPYVKVDTIAPDESFSRLDAGRVNTKVRSFGPLSKAGFYLAFQDQGACMSLISVRAFYKKCASTTAGFALFPETLTGAEPTSLVIAPGTCIPNAVEVSVPLKLYCNGDGEWMVPVGACTCATGHEPAAKESQCRPCPPGSYKAKQGEGPCLPCPPNSRTTSPAASICTCHNNFYRADSDSADSACTTVPSPPRGVISNVNETSLILEWSEPRDLGGRDDLLYNVICKKCHGAGGASACSRCDDNVEFVPRQLGLTERRVHISHLLAHTRYTFEVQAVNGVSGKSPLPPRYAAVNITTNQAAPSEVPTLRLHSSSGSSLTLSWAPPERPNGVILDYEMKYFEKSEGIASTVTSQMNSVQLDGLRPDARYVVQVRARTVAGYGQYSRPAEFETTSERGSGAQQLQEQLPL
B7: EphB6 ectodomain fused with Fc (Fc fusion, UniProt O15197 32-594)
chain: LEEVLLDTTGETSEIGWLTYPPGGWDEVSVLDDQRRLTRTFEACHVAGAPPGTGQDNWLQTHFVERRGAQRAHIRLHFSVRACSSLGVSGGTCRETFTLYYRQAEEPDSPDSVSSWHLKRWTKVDTIAADESFPSSSSSSSSSSSAAWAVGPHGAGQRAGLQLNVKERSFGPLTQRGFYVAFQDTGACLALVAVRLFSYTCPAVLRSFASFPETQASGAGGASLVAAVGTCVAHAEPEEDGVGGQAGGSPPRLHCNGEGKWMVAVGGCRCQPGYQPARGDKACQACPRGLYKSSAGNAPCSPCPARSHAPNPAAPVCPCLEGFYRASSDPPEAPCTGPPSAPQELWFEVQGSALMLHWRLPRELGGRGDLLFNVVCKECEGRQEPASGGGGTCHRCRDEVHFDPRQRGLTESRVLVGGLRAHVPYILEVQAVNGVSELSPDPPQAAAINVSTSHEVPSAVPVVHQVSRASNSITVSWPQPDQTNGNILDYQLRYYDQAEDESHSFTLTSETNTATVTQLSPGHIYGFQVRARTAAGHGPYGGKVYFQTLPQGELSSQLPERLS
B8: EphB4 ectodomain fused with Fc (Fc fusion, UniProt P54760 16-539)
chain: LEETLLNTKLETADLKWVTFPQVDGQWEELSGLDEEQHSVRTYEVCDVQRAPGQAHWLRTGWVPRRGAVHVYATLRFTMLECLSLPRAGRSCKETFTVFYYESDADTATALTPAWMENPYIKVDTVAAEHLTRKRPGAEATGKVNVKTLRLGPLSKAGFYLAFQDQGACMALLSLHLFYKKCAQLTVNLTRFPETVPRELVVPVAGSCVVDAVPAPGPSPSLYCREDGQWAEQPVTGCSCAPGFEAAEGNTKCRACAQGTFKPLSGEGSCQPCPANSHSNTIGSAVCQCRVGYFRARTDPRGAPCTTPPSAPRSVVSRLNGSSLHLEWSAPLESGGREDLTYALRCRECRPGGSCAPCGGDLTFDPGPRDLVEPWVVVRGLRPDFTYTFEVTALNGVSSLATGPVPFEPVNVTTDREVPPAVSDIRVTRSSPSSLSLAWAVPRAPSGAVLDYEVKYHEKGAEGPSSVRFLKTSENRAELRGLKRGASYLVQVRARSEAGYGPFGQEHHSQTQLDESEGWREQLA
B9: EphB2 ectodomain fused with Fc (Fc fusion, UniProt P29323 19-543)
chain: B3 chain with L104S, N154S, K520Q

target: EphB4 on the surface of A2780cp20 ovarian cancer cells (human (endogenous in A2780cp20)) (UniProt P54760); assay: flow cytometry on cells; competition: A2780cp20 cells (1x10^6 cells/mL) co-incubated with EFNB2-Fc (20 nM) and BIDEN-AP (0 to 100 µM) at 25 °C for 1 h; bound EFNB2-Fc probed with phycoerythrin-labeled anti-Fc antibody; only the binder purified

binding	Molecule
binds	EFNB2-Fc (ephrin B2 fused with Fc) (from UniProt P52799 28-229) (Fc fusion)

target: T1, biotinylated BIDEN-AP; assay: ELISA; biotinylated BIDEN-AP (10 uM) on streptavidin-coated plates; Eph ectodomain-Fc proteins at 2.5 ug/mL in 0.5% BSA in PBS, room temperature, 1 h; detected with anti-Fc antibody coupled to alkaline phosphatase; normalised to EphB4-Fc; both purified

binding	Molecule
no binding (tested: 2.5 ug/mL)	B1
no binding (tested: 2.5 ug/mL)	B2
no binding (tested: 2.5 ug/mL)	B3
no binding (tested: 2.5 ug/mL)	B4

target: T1, biotinylated BIDEN-AP; assay: ELISA; biotinylated BIDEN-AP (10 µM) immobilised on streptavidin-coated 96-well plates; Eph ectodomain-Fc proteins (2.5 µg/mL) in 0.5% BSA in PBS, room temperature, 1 h; anti-Fc antibody coupled to alkaline phosphatase; signals normalized to EphB4-Fc; both purified

binding	Molecule
no binding (tested: 2.5 µg/mL)	B5
no binding (tested: 2.5 µg/mL)	B6
no binding (tested: 2.5 µg/mL)	B7
binds	B8
no binding (tested: 2.5 µg/mL)	B9
